Experimental data published in patent publication US20230101768A1, “METHOD TO TREAT MANGANESE TOXICITY AND MANGANESE-INDUCED PA[…] HUMANS” (priority 2021, published 2023).

Tested on: C57BL/6J mice
Conditions: 4 weeks treatment
Method: To assay for the protective effect of roxadustat, animals were exposed to roxadustat or vehicle with or without manganese in drinking water from ˜4 weeks of age. Treatment lasted for 4 weeks from initiation. Roxadustat (Selleckchem) was prepared as a 50 mg/ml stock solution in DMSO, then diluted to 1 mg/ml in sterile phosphate buffered saline (PBS), and delivered by daily i.p. injection at 10 mg/kg. Vehicle was 2% DMSO in PBS. For this experiment, drinking water manganese levels were adjusted to 0.138 mg absolute manganese/ml so that animals received ˜30 mg absolute manganese/kg daily. A higher level of manganese was used because exposure was initiated after weaning, which was necessary because daily i.p. injections for roxadustat delivery were not possible in the pre-weaning period.
Animals were euthanized using carbon dioxide and tissue dissected for qRT-PCR or ICPMS analyses as described by us previously (50).
Inductively coupled plasma mass spectrometry. Metal measurements using ICP-MS were performed exactly as described by us previously (47, 50, 51, 99).

Structure (SMILES)	Levels of other metals (Fe, Cu, and Zn) in blood and brain
O.O.O.O.[Cl][Mn][Cl] [manganese, manganeseCl2.4H2O]	not impacted
Cc1nc(C(=O)NCC(=O)O)c(O)c2ccc(Oc3ccccc3)cc12 [roxadustat, 2-[(4-hydroxy-1-methyl-7-phenoxyisoquinoline-3-carbonyl)amino]acetic acid]	not impacted
